Measured values published in publication PMC11960969, “Mdga2 deficiency leads to an aberrant activation of BDNF/TrkB signaling that underlies autism-relevant synaptic and behavioral changes in mice” (PLOS Biology, 2025).

Biological target: T1, MDGA2 (MAM domain containing glycosylphosphatidylinositol anchor 2), endogenous mouse (mouse (endogenous in mouse brain)) (UniProt P60755)
T1 sequence: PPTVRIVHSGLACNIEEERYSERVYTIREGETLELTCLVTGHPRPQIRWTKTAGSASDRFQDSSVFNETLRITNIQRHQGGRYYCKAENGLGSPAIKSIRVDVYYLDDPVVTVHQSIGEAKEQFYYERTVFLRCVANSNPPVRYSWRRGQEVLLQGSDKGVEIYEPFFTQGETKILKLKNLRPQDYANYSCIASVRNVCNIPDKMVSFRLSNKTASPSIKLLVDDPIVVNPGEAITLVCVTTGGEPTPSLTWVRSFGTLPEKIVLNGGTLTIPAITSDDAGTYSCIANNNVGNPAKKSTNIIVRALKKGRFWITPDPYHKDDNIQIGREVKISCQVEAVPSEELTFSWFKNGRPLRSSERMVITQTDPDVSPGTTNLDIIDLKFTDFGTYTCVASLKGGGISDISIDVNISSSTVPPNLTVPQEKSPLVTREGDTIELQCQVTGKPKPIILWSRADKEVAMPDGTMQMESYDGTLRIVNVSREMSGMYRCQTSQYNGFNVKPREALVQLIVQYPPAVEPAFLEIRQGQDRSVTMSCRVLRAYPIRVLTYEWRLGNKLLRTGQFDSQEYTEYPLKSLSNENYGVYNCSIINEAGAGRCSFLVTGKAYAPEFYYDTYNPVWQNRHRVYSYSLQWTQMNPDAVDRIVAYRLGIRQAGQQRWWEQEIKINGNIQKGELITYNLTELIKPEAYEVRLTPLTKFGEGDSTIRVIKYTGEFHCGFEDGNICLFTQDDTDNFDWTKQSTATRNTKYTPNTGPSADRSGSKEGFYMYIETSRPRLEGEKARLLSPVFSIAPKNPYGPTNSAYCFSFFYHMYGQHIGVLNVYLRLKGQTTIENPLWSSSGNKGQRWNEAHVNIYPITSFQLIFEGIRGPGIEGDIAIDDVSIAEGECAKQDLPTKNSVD
Experiment: co-IP; WT mouse brain lysates, IP with an anti-MDGA2 antibody or control IgG, immunoblot

binding: no binding
Substance: mature BDNF (mBDNF), endogenous mouse (ligand)

Results are given in words; binding and its absence hold for the method and conditions named. Binding seen in cells or lysates may run through a third protein.
